Measured values published in PubChem BioAssay AID1347426 (Functional Genomics Laboratory (NCATS/FGL), 2020).
The campaign covered roughly 31,000 sequences. About 1,400 (4.5%) were called active.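 How the source made its calls: active means median seed-adjusted z-score above 1 or below -1; inactive means the rest.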 The list shows a part of the results.

Experiment: Novel Modifiers of Survival Motor Neuron (SMN) Protein: Gene Identification via Genome-wide siRNA Screen;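 further: luminescence tracks full-length SMN protein made from the SMN2 reporter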
Details: HEK293T SMN2-luciferase reporter, siRNA knockdown, 72 h; actives lie on both sides
In short: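 Steps: spot 1 pmol siRNA, add Lipofectamine RNAiMax in serum-free DMEM, seed HEK293T SMN2–luciferase reporter cells; incubate 72 h at 37 °C; add ONE-Glo; normalize luminescence to control siRNA, log10, MAD. Candidates: |MAD| > 1.0.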

| Sequence | median seed-adjusted z-score |
| --- | --- |
| GGCCUACCGUAAGAAUGCATT against PHKA2 | inactive: 0.304 |
| GCAACCUUAUAAUAACGGUTT against RELN | inactive: 0.207 |
| CAUCUUAAGUGUUUUACAUTT against LMO4 | inactive: -0.067 |
| GGACUUACCUUCAACCAAUTT against RSF1 | inactive: 0 |
| GGAUCCUGUAAAUCCCUAUTT against MEST | inactive: -0.0503 |
| CCAAAAUGUUUCAUCCAAATT against UBE2B | inactive: 0.333 |
| AAGUAAAUCUGUAAACAGATT against CYP3A5 | inactive: 0.0516 |
| CAACAUCUCCGAGGGCGAATT against SEZ6L2 | inactive: -0.331 |
| GGUGAAGGAUAUAGCAAUATT against RYK | inactive: -0.446 |
| GUAUAGACAUGAUUGACAATT against ARNTL | inactive: 0.0838 |
| CCGCAGUGAUCAACAAAGATT against ZFPM1 | inactive: -0.925 |
| CAGAUACUUUAGGACUCAATT against UGT2B4 | inactive: 0.0707 |
| CUCUAUAGCUUUUACUUCUTT against CNGA4 | inactive: 0.125 |
| GCUUAGCGGUGAAGAAGCATT against STK33 | inactive: -0.168 |
| GCUCCUCGUUUGUAGAAGATT against SLIT3 | inactive: -0.453 |
| AGCUUUUGAAGGUAAUUAATT against EMG1 | inactive: -0.0627 |
| GGCUUCACCUAAAAACGUATT against BRCA2 | inactive: 0 |
| CACCGGAUGUGGAGAACUATT against MYOC | inactive: 0.764 |
| GAGUCUAAAUCCUCCAGUUTT against DUSP27 | inactive: -0.162 |
| GCAUAUGCCCUGUUUUUCATT against TOX3 | inactive: -0.216 |
| CGUUCCGACAGAUCAAGGATT against DPP7 | inactive: -0.217 |
| CCAAAACCGUCGCAUGAAATT against HOXC4 | inactive: -0.0114 |

Quoted at random: three records from the list.

| Sequence | median seed-adjusted z-score |
| --- | --- |
| CCAAAACCGUCGCAUGAAATT against HOXC4 | inactive: -0.0114 |
| GGACUUACCUUCAACCAAUTT against RSF1 | inactive: 0 |
| GGCCUACCGUAAGAAUGCATT against PHKA2 | inactive: 0.304 |

Continued:

| Sequence | median seed-adjusted z-score |
| --- | --- |
| GCAUCUUGAUCCUCCUGUATT against NRXN3 | inactive: 0.897 |
| UCCUAAAUGUGACCCGGUATT against ZMYND19 | inactive: 0.369 |
| GCGCGAUAACCUCCUCAUATT against ZAP70 | inactive: -0.674 |
| CCUCAUUUACUGUCCAACUTT against EFCAB4B | inactive: 0 |
| CACUAAACGAGGAUUCCUATT against YWHAH | inactive: -0.125 |
| GCUUAAUCCUGAUUAUCGATT against ITPR2 | inactive: 0 |
| CAUAGACUCUUACACCACATT against SC4MOL | inactive: -0.0194 |
| GUGCUGUACGUGUUGCUGCTT against NPBWR1 | inactive: 0.344 |
| GAAAUACGCAGAUGACAAATT against MCM8 | inactive: 0.279 |
| GGCCGAAUGUUUGCACCAATT against RPL4 | inactive: 0.573 |
| GAACUGUGCUCAGACCUCUTT against HSPA6 | inactive: 0.364 |
| CGUUACCUUUUAAGCUUGATT against SOCS6 | inactive: 0.359 |
| GGACAGUAGUAGCUACAGUTT against PCDH7 | inactive: 0.192 |
| GGGUUAGACGGAUACAAGATT against LILRA2 | inactive: -0.103 |
| AGAUCUCCAUGGUCAGGAUTT against ACCN4 | inactive: -0.512 |
| GGAUGUCUGGUUCUCGUAATT against KLHL5 | inactive: 0.48 |
| GACAGUUCGUGAUGCUAUATT against PDHB | inactive: -0.478 |
| CGGUACUCAUCAUCGCGCATT against ABCB9 | inactive: 0.151 |
| GGAGCUUCAGGUUGUCCGATT against RPUSD3 | inactive: 0.303 |
| GGAUCGAAUUUUUGGAACATT against SC4MOL | inactive: -0.0194 |
| GGAUAUGCGUGAAUUUCGATT against ERCC4 | inactive: -0.00878 |
| CCCAGAUCACGUCCACCUUTT against GGTLC1 | inactive: -0.298 |

| Sequence | median seed-adjusted z-score |
| --- | --- |
| AGAAUGACAGGGUCCAGAATT against OGFR | inactive: -0.565 |
| CCCUGAUAGAGAAACCCGATT against SIGLEC5 | inactive: -0.615 |
| CCUUCGAACAAAGAGUAGATT against MAP1LC3B | inactive: -0.0749 |
| GCCUAUUUCCGCAGAAACATT against FOXP4 | inactive: 0.588 |
| GGCUGAAGCUGACGAAAGATT against SNTG2 | inactive: 0.603 |
| GGAGACAACUAAGGGAUUATT against MOGAT3 | inactive: -0.383 |
| GGUUUGGAAUGUUCGAGUUTT against SLC25A1 | inactive: 0.252 |
| CCAAUGAUGUAUGAUCUAATT against UBE3A | inactive: 0.0949 |
| GCUUAUGAGUUUGUUCGUATT against NARG1L | inactive: 0.0121 |
| GGCUGAUCCUUUGCUAUGATT against CDC42BPB | inactive: -0.556 |
| GUUCUGCCCUCAUACCCUUTT against IL9R | active: -1.33 |
| ACAGCACUCACCAUCCUUATT against CHRNA10 | inactive: 0.521 |
| GGAAAAGCUUUAAUCGACATT against ZNF193 | inactive: 0.276 |
| CAACAAGAAUAUCCGCAAATT against EIF2AK3 | inactive: -0.0208 |
| GCAAUUUGGUGGUCAGAGATT against PCDHAC1 | inactive: -0.189 |
| CAGACUUUUAUAACCCUUUTT against CLDN7 | inactive: 0.0208 |
| CCCUGGUAGUUCCACACCATT against CRHBP | inactive: -0.0443 |
| CCUACUAUGUGAGCAAUGATT against EEF1G | inactive: -0.206 |
| UCAUUGUUGUGGGCCGAUATT against DDB2 | inactive: 0 |
| GCCAUGUGUUUAUCCUAAATT against DBI | inactive: 0.0661 |
| GAUAGGACCUUGAUAUAUATT against ARPC3 | inactive: -0.237 |
| CCUCACGCAUCUAUAUUUATT against ANP32C | inactive: -0.421 |

| Sequence | median seed-adjusted z-score |
| --- | --- |
| CGUCUAUACUUUGCGGAAATT against MAST2 | inactive: 0.27 |
| GGAUUAUGAGAGAUCCAGATT against NRAP | inactive: -0.205 |
| GCUUUGAGGGUUUGAAGAATT against GSTM5 | inactive: -0.861 |
| GAGUCAUUCCUAACGUACATT against INADL | inactive: 0.53 |
| CAGGUACAGCGCAUCGUUATT against EDC4 | inactive: 0 |
| GCGUGGAGAUCUUGCCUGUTT against CHPF | inactive: 0.248 |
| CAACAUCUGCUACAAUGUATT against ACSS2 | inactive: 0 |
| GGACGAAAGAACUCAGGAATT against DYRK1B | inactive: 0.29 |
| GGGUGAUAUAAAGUCAAAATT against SFRS6 | inactive: 0.378 |
| AGAAAUCGGUUUGAAGUUATT against TRMU | inactive: 0.0312 |
| GGAAUAAAAUCACUCAAGATT against CHFR | inactive: -0.673 |
| CGAGAGCAAGUGUGAGUAUTT against ZNF295 | inactive: 0.371 |
| GCCGUGUAUUUGGUCCGUUTT against NCBP1 | inactive: 0.785 |
| GCAGCUGUAAGGAACUUCATT against USP32 | inactive: 0.484 |
| CAAUAUCUGCUGCGCGGAATT against OXT | inactive: 0.553 |
| GGGCCGCUUUAGAAAGGUATT against SNX1 | inactive: 0.0261 |
| CGGGAGCAUUGGAUGAGAATT against ARL8A | inactive: -0.0844 |
| GGCACUUUUUCUCAGCUGATT against HBD | inactive: 0 |
| GGCUUAUGACCGAGAAAAATT against ARHGAP18 | inactive: 0 |
| GUAACACCAUAUAUCAAGATT against SNTB2 | inactive: 0.268 |
| GGAUCAAGAGAGAAGGUCATT against HELLS | inactive: 0.192 |
| GGCUUUACUCCGUAACAGATT against RHOA | inactive: -0.219 |

| Sequence | median seed-adjusted z-score |
| --- | --- |
| CAAUUAUUGCAGUGCGUAUTT against NEUROD6 | inactive: -0.261 |
| GGUUUUGAAAUUAUCCAAATT against STARD5 | inactive: -0.0333 |
| GACGAAUCACUGCAGUUUATT against GOSR2 | active: -1.25 |
| GGUUCUCUAUGGGCGCAUATT against HTR1A | inactive: 0 |
| GGAGGAAUCUCCAAUGUAUTT against LYPLAL1 | inactive: -0.425 |
| GGGCUUCAGCUUAAAGGCATT against NUP62 | inactive: 0 |
| GCAUUGUGACGGAUGCUAUTT against PCSK1 | inactive: 0.154 |
| GCUCACAGAUGAGUUCUAUTT against NXNL1 | inactive: 0.334 |
| CAGGCACUGUCUUUAAACATT against SERPINB9 | inactive: 0 |
| GGUUCAUCCUGGACCCGAATT against NCR1 | inactive: -0.26 |
| GAAAUAAAUUCACAGUCAATT against FABP2 | inactive: 0 |
| GGACUUCUUUAGGCAGAUATT against NDUFA8 | inactive: -0.752 |
| GGACCAUUGUGCGUUUCAATT against SERPINA3 | inactive: 0.125 |
| GCAAAUCAGAGGUUCAGAUTT against SQLE | active: -1.14 |
| GGAAAUAGAAAACUCCGAATT against SPAG1 | inactive: 0.413 |
| GCAAAUUGAUGAACCGGUUTT against CEP135 | inactive: -0.2 |
| GGAUGUUAUGGGAAAUGAATT against PPM1A | inactive: 0.0153 |
| CCUUGUACAUCGUGGGAUATT against PDSS2 | inactive: 0.111 |
| CCUUGAAUGCCGACAAGAATT against MATN3 | inactive: 0.0972 |
| CUCAUAUUCUUUUACGAUATT against EFHA2 | inactive: 0.166 |

As entered above.
median seed-adjusted z-score with GGGCUUCAGCUUAAAGGCATT against NUP62 is entered as inactive: 0
median seed-adjusted z-score with CAGGCACUGUCUUUAAACATT against SERPINB9 is entered as inactive: 0
median seed-adjusted z-score with GGAAAUAGAAAACUCCGAATT against SPAG1 is entered as inactive: 0.413
